According to the supplement of paper PMC12819154, “High-throughput peptide-centric local stability assay extends protein–ligand identification to membrane proteins, tissues and bacteria” (Nature Structural & Molecular Biology, 2025):
Some of the results follow. Most entries show no effect beyond the scatter of the controls.

The chains behind the UniProt entries cited, without tags or fusion partners. Where a name states a change or a piece, a line headed by the entry shows the natural chain unless it says otherwise.
UniProt Q96C23: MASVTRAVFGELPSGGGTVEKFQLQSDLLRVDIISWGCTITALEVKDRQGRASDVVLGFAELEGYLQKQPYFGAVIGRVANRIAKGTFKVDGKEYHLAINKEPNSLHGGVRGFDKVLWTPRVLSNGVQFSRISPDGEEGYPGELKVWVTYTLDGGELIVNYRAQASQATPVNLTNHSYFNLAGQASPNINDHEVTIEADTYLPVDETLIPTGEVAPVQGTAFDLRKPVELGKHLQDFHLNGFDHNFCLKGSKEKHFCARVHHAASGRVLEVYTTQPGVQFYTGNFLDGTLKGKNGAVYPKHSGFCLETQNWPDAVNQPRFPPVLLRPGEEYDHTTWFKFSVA
UniProt Q96BN8, whole entry: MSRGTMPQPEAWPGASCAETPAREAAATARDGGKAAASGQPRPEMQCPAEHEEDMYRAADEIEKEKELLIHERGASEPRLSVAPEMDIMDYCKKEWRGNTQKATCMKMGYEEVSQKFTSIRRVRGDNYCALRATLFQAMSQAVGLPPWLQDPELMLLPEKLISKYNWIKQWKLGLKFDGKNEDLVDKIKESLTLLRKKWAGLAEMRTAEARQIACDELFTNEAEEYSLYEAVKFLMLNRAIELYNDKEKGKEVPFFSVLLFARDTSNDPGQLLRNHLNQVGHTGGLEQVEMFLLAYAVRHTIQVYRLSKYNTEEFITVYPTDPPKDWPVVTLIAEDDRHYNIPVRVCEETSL
UniProt Q96CB9: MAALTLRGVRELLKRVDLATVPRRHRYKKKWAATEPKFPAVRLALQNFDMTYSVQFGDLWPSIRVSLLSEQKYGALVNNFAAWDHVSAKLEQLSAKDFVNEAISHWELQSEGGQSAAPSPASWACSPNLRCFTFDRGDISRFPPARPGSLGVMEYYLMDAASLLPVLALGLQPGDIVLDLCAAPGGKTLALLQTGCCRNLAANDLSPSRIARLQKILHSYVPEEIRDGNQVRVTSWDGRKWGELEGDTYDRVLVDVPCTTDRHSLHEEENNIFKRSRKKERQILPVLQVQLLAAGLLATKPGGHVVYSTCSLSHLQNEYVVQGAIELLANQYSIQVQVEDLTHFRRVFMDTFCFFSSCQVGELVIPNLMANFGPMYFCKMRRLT
UniProt Q96EA4: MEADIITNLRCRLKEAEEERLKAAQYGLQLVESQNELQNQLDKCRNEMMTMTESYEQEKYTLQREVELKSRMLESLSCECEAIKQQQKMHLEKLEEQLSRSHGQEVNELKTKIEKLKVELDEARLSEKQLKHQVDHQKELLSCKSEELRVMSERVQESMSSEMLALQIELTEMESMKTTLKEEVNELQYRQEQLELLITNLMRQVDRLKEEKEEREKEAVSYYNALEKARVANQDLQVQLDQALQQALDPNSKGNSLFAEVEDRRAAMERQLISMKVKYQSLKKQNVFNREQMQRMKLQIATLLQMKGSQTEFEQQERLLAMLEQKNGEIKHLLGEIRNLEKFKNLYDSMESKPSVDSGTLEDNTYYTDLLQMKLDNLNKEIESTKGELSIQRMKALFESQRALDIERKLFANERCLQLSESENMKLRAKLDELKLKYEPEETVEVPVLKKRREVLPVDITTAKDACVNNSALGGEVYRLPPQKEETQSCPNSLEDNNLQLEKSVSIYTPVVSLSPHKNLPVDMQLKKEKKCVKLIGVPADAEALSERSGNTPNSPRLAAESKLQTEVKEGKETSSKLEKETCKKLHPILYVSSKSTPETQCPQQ
UniProt Q96A73: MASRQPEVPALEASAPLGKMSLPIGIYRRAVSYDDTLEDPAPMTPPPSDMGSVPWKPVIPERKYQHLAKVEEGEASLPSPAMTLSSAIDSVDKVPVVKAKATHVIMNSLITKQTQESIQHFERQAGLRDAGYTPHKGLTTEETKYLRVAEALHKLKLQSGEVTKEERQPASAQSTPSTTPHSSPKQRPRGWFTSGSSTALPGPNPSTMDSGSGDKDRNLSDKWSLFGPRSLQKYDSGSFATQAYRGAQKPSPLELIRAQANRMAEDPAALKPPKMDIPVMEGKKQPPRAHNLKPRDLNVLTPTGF
UniProt Q96C19: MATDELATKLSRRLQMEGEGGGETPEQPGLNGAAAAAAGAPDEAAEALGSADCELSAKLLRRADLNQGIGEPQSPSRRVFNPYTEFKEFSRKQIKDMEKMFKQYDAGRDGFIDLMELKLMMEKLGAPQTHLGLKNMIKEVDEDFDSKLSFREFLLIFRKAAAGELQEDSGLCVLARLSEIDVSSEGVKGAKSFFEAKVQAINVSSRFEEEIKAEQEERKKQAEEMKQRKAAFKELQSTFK
UniProt Q92994: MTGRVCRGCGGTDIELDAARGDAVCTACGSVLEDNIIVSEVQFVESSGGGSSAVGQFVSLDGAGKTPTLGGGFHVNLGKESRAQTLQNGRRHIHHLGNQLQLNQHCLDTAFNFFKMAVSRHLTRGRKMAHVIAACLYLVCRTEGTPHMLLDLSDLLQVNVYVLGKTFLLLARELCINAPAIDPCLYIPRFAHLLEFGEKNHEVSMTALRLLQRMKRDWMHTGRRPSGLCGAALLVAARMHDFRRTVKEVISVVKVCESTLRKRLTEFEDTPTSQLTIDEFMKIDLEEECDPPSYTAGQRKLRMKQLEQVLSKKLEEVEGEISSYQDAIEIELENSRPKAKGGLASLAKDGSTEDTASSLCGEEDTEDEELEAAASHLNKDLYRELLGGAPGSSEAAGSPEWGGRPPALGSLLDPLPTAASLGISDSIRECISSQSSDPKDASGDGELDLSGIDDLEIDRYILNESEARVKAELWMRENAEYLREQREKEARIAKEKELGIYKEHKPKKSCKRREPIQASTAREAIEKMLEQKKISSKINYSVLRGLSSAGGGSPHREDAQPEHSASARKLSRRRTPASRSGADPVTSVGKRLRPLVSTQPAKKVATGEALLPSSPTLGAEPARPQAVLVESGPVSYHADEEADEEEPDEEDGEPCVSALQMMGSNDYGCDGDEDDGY
UniProt Q92738: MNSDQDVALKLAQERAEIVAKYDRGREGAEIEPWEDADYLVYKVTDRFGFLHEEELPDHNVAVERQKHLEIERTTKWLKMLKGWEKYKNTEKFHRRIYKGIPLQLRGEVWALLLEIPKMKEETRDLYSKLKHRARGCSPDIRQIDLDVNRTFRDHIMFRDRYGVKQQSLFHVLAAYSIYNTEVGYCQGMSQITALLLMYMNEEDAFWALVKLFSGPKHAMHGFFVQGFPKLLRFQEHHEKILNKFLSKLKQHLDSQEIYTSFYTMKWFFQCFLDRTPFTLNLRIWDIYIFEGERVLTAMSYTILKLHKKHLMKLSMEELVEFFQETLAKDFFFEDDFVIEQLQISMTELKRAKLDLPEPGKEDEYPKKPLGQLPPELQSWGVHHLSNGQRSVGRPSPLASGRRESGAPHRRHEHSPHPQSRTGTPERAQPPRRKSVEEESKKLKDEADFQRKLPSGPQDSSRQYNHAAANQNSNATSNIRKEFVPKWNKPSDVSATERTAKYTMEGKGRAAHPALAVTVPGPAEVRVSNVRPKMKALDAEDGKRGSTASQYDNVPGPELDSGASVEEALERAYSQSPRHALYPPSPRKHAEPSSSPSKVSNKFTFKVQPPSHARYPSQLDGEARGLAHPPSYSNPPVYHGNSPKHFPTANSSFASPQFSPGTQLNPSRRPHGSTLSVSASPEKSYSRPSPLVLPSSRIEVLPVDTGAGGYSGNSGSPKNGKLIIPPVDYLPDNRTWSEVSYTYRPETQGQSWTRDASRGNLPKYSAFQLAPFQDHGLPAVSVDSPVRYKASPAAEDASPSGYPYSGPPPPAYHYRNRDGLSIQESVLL
UniProt Q92889: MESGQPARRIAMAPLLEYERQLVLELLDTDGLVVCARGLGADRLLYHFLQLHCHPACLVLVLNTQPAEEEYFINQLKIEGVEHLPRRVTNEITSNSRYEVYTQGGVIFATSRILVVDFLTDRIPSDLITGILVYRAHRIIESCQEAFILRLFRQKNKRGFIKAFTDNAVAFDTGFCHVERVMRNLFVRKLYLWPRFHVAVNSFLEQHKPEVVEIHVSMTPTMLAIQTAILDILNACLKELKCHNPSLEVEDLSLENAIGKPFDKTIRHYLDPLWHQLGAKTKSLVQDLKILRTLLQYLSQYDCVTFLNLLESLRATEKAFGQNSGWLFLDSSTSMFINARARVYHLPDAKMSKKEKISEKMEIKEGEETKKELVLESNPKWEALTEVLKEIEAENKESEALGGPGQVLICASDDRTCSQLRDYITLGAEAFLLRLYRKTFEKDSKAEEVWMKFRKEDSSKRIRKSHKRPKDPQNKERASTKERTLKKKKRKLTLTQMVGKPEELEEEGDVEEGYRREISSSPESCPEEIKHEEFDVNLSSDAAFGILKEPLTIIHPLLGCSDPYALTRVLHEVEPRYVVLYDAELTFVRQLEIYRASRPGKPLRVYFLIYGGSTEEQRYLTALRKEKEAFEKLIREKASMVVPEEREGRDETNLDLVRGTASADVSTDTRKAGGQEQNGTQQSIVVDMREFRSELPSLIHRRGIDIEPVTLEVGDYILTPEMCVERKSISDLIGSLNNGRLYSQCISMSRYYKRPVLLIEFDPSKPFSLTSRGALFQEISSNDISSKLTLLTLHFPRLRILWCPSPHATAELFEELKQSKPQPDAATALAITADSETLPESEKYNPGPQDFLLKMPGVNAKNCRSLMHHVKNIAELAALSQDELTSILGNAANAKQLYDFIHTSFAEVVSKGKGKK
UniProt Q96DP5: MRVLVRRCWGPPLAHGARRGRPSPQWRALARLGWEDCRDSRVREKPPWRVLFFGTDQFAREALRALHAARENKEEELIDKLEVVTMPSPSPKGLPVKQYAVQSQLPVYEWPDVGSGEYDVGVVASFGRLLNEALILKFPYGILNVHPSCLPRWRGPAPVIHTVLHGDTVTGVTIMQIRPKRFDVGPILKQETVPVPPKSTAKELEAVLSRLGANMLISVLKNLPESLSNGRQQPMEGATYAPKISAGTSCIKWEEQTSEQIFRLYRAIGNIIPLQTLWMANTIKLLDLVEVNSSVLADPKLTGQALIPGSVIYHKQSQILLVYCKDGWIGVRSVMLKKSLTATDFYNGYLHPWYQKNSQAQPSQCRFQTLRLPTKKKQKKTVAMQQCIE
UniProt Q92887: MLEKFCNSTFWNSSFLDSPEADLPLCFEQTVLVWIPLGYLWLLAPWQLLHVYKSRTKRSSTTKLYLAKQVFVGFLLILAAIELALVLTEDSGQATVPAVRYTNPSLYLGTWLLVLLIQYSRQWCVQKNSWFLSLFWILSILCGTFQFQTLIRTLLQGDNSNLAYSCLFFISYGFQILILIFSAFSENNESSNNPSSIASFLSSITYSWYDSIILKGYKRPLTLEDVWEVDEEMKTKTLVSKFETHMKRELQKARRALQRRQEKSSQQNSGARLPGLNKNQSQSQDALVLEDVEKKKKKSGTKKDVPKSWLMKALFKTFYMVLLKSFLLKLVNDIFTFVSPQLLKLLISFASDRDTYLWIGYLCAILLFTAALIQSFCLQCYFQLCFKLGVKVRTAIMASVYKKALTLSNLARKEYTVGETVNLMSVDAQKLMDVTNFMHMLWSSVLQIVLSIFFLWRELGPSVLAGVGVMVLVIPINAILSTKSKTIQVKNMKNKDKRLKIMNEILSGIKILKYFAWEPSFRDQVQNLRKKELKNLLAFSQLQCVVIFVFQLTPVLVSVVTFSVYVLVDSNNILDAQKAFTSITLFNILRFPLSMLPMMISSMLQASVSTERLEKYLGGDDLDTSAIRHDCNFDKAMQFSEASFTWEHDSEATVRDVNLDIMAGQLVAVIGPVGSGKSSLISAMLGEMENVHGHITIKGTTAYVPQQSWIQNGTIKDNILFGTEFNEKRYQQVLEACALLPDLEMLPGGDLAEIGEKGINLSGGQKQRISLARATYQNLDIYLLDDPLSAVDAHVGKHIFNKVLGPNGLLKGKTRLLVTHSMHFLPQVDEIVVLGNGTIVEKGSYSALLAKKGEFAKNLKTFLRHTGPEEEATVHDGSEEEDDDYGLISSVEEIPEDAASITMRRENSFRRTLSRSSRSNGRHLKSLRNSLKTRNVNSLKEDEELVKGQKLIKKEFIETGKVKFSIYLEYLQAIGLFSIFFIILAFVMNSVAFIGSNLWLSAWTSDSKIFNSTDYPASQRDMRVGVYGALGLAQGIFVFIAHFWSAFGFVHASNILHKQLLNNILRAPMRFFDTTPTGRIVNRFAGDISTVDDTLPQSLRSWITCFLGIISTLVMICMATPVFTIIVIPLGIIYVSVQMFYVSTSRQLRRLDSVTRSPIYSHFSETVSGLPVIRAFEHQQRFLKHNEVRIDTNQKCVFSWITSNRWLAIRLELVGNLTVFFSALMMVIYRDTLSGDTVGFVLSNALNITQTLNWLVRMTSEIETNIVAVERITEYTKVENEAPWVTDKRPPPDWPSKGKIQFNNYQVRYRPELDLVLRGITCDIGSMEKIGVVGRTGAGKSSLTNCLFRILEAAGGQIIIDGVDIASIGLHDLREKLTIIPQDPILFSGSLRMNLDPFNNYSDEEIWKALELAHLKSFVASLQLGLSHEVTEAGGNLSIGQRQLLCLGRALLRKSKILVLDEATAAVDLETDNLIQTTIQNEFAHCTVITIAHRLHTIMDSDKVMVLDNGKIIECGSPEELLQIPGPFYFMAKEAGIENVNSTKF

Compound: Cc1nc(Nc2ncc(C(=O)Nc3c(C)cccc3Cl)s2)cc(N2CCN(CCO)CC2)n1 [dasatinib]
Test: log2 fold change of tryptic peptide abundance, ligand vs vehicle (limited proteolysis) (log2 ratio); higher = more trypsin-susceptible (destabilized)
Conditions: ligand concentration: 5 uM; sample: K562 cleared lysate

Target	log2 fold change
NEIL2 (peptide sequence: FQGRPQHTQVYQK, peptide start residue: 276) (UniProt Q969S2)	0.425
SLC7A6OS (peptide sequence: RSAEPAEALVLACKR, peptide start residue: 15) (UniProt Q96CW6)	-0.26
GTPBP3 (peptide sequence: SSLVNLLSR, peptide start residue: 263) (UniProt Q969Y2)	0.177
UniProt Q96DY7 (peptide sequence: ASVCHYHGIEYCLDDR, peptide start residue: 651)	-0.157
GALM (peptide sequence: VLSNGVQFSR, peptide start residue: 122) (UniProt Q96C23)	0.135
PTCD3 (peptide sequence: FIGPDQHR, peptide start residue: 447) (UniProt Q96EY7)	0.504
RIT1 (peptide sequence: TDDTPVVLVGNK, peptide start residue: 124) (UniProt Q92963)	-0.39
UniProt Q96BN8 (peptide sequence: AADEIEKEK, peptide start residue: 58)	0.145
NSUN4 (peptide sequence: ILHSYVPEEIRDGNQVR, peptide start residue: 216) (UniProt Q96CB9)	0.26
DAZAP1 (peptide sequence: DSKSQAPGQPGASQWGSR, peptide start residue: 192) (UniProt Q96EP5)	0.263
UniProt Q96EA4 (peptide sequence: ETSSKLEK, peptide start residue: 573)	-1.15
UniProt Q96DL1 (peptide sequence: KHGHPFVTKK, peptide start residue: 412)	-0.185
ELP4 (peptide sequence: KEFDEDVYNHKTPESNIK, peptide start residue: 140) (UniProt Q96EB1)	0.3
KTI12 (peptide sequence: FTRPLTMAELSR, peptide start residue: 309) (UniProt Q96EK9)	-0.142
GFM2 (peptide sequence: KPLLEMNDPELLK, peptide start residue: 259) (UniProt Q969S9)	0.635
MRPS24 (peptide sequence: KGWLSLHTGNLDGEDHAAER, peptide start residue: 66) (UniProt Q96EL2)	-0.543
MAGOHB (peptide sequence: FGHEFLEFEFRPDGK, peptide start residue: 17) (UniProt Q96A72)	0.332
CUL5 (peptide sequence: VLSHQDDTALLK, peptide start residue: 80) (UniProt Q93034)	-0.323
STMN2 (peptide sequence: ALEENNNFSKMAEEK, peptide start residue: 120) (UniProt Q93045)	-0.277

Exported with bars between the fields: part of the list above
Target | log2 fold change
SLC7A6OS (peptide sequence: RSAEPAEALVLACKR, peptide start residue: 15) (UniProt Q96CW6) | -0.26
ELP4 (peptide sequence: KEFDEDVYNHKTPESNIK, peptide start residue: 140) (UniProt Q96EB1) | 0.3

(continued)

Target	log2 fold change
KIAA1191 (peptide sequence: GAQKPSPLELIR, peptide start residue: 246) (UniProt Q96A73)	-0.23
EFHD2 (peptide sequence: RADLNQGIGEPQSPSR, peptide start residue: 62) (UniProt Q96C19)	0.0774
ZNF428 (peptide sequence: ALGEEEEEPPR, peptide start residue: 130) (UniProt Q96B54)	-0.036
UniProt Q96C57 (peptide sequence: HKVNEHEQDGNELQTTPEFR, peptide start residue: 64)	-0.0824
HSPBAP1 (peptide sequence: INVVNPDLK, peptide start residue: 220) (UniProt Q96EW2)	-0.292
SMARCC1 (peptide sequence: NKEKPVDLQNFGLR, peptide start residue: 589) (UniProt Q92922)	-0.0818
BRF1 (peptide sequence: ECISSQSSDPK, peptide start residue: 429) (UniProt Q92994)	-0.359
USP6NL (peptide sequence: KLPSGPQDSSR, peptide start residue: 452) (UniProt Q92738)	-0.387
ERCC4 (peptide sequence: EGRDETNLDLVR, peptide start residue: 647) (UniProt Q92889)	-0.0988
ITPKC (peptide sequence: KQDTEAAR, peptide start residue: 252) (UniProt Q96DU7)	-0.26
MTFMT (peptide sequence: FPYGILNVHPSCLPR, peptide start residue: 138) (UniProt Q96DP5)	0.555
SMARCE1 (peptide sequence: KLEAELLQIEER, peptide start residue: 240) (UniProt Q969G3)	0.066
ABCC2 (peptide sequence: KEFIETGK, peptide start residue: 954) (UniProt Q92887)	-0.0736
REPS1 (peptide sequence: GSVSHDTVQPR, peptide start residue: 142) (UniProt Q96D71)	0.2
UniProt Q92674 (peptide sequence: GIYIDPEILEK, peptide start residue: 660)	-0.125
MRPS31 (peptide sequence: ATEYAPKK, peptide start residue: 139) (UniProt Q92665)	0.618
TTC28 (peptide sequence: SQEESNPK, peptide start residue: 2149) (UniProt Q96AY4)	1.01
AKT1S1 (peptide sequence: SLPVSVPVWGFKEK, peptide start residue: 183) (UniProt Q96B36)	0.225
